Experimental data from PubChem BioAssay AID2685 (National Center for Advancing Translational Sciences (NCATS), 2010).
The other results are listed elsewhere or left out. Further columns of the screen follow, without active or inactive calls. Most of these compounds were active or inconclusive in the main read-out, so they are no random draw. Potencies come from curve fits of mixed quality, noted in brackets.

Assay: qHTS Assay for Lipid Storage Modulators in Drosophila S3 Cells;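 on cell number change: cells counted by Cell Tracker Red CMTPX staining in the red channel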
Conditions: BODIPY lipid droplet fluorescence, 18-24 h; for cell number change: measured here: cell count max response, cells fed with added oleic acid
Summary of the method: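 Drosophila S3 cells got compounds at several concentrations plus oleic acid (400 uM solution). Laser-scanning cytometry with 488 nm excitation read lipid droplets at 500-530 nm and cells at 575-640 nm. Percent activity was relative to 20 uM Triacsin C.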

[1] = measured here: lipid fluorescence (Fed channel) AC50, cells fed with added oleic acid
[2] = measured here: cell number channel AC50, cells fed with added oleic acid

With `C=CCNc1nc(N)c(C(=O)Nc2cc(C)on2)s1` the cell number change was -12.3% and the AC50 [1] was 32.6 µM [falling, partial curve, poor fit].

For `O=C(Nc1nc2ccc(S(=O)(=O)N3CCCCC3)cc2s1)c1ccncc1`, the AC50 [2] was 0.58 µM [rising, single point].

With `Cc1ccc(SCCN2C(=O)NC(C)(C)C2=O)cc1` the cell number change was 2.75% and the AC50 [2] was 0.116 µM [rising, full curve, poor fit].

In the case of `COc1ccc(Cn2c(C)c(C)c(C#N)c2NC(=O)Nc2cccc(C)c2)cc1`, the cell number change is reported as 7.94% and the AC50 [1] is reported as 0.00461 µM [falling, full curve, poor fit].

For `CCCS(=O)(=O)N1CCCC(C(=O)NC2CCCCC2)C1` (stereo not drawn), the cell number change was -13.8% and the AC50 [1] was 2.59 µM [rising, partial curve].

`COc1ccccc1-c1nn2c(C(F)(F)F)nnc2s1` showed a cell number change of -3.9%.

With `COc1ccc(C(C(C(=O)c2cccs2)N2CCOCC2)N2CCOCC2)cc1OC` (stereo not drawn) the cell number change was 158%, the AC50 [2] was 23.1 µM [rising, partial curve] and the AC50 [1] was 0.164 µM [rising, full curve, poor fit].

With `CCOC(=O)C1C(C(=O)Nc2cccc(C(F)(F)F)c2)C1C(=O)NC(C)C` (stereo not drawn) the cell number change was -23.5% and the AC50 [1] was 29.1 µM [falling, single point].

In the case of `O=C(/C=C/c1cccc([N+](=O)[O-])c1)NCCN1CCOCC1`, the cell number change is reported as 6.32%.

In the case of `c1csc(-c2cnc3n2CCCC3)c1`, the cell number change is reported as 1.7% and the AC50 [1] is reported as 6.51 µM [rising, single point].

For `CCCCOc1c(Cl)cc(CNC(C)(C)CO)cc1OCC`, the cell number change was -9.98% and the AC50 [1] was 10.3 µM [falling, partial curve].

In the case of `Cc1noc(C)c1CSCC(=O)Nc1cc(C(F)(F)F)ccc1N1CCOCC1`, the cell number change is reported as -2.59% and the AC50 [1] is reported as 4.61 µM [falling, partial curve, poor fit].

`C/C(=N\NC(=O)c1ccccc1C)c1ccc(NC(=O)c2cccs2)cc1` showed a cell number change of 8.2%.

In the case of `COc1ccc(CCNC(=O)CCCn2c(=O)c3cccn3c3cccnc32)c(OC)c1OC`, the cell number change is reported as -13% and the AC50 [1] is reported as 0.0651 µM [falling, full curve, poor fit].

For `Cc1nc(C(F)(F)F)nc(Nc2ccc(Br)cc2)c1C#N`, the AC50 [2] was 0.92 µM [rising, partial curve] and the AC50 [1] was 6.51 µM [rising, single point].

For `COc1ccc(CNC(=O)CSc2ccc(Br)cc2)cc1OC`, the cell number change was -1.16% and the AC50 [1] was 0.00461 µM [falling, full curve].

For `Cc1c(NC(=O)C(C)OC(=O)c2sc3ccccc3c2Cl)c(=O)n(-c2ccccc2)n1C` (stereo not drawn), the cell number change was -16.7%.

With `O=C(Cc1cccs1)Nc1nc(-c2cccnc2)cs1` the cell number change was 5.94%, the AC50 [2] was 3.66 µM [rising, partial curve] and the AC50 [1] was 2.59 µM [rising, full curve].

In the case of `COc1cccc(CNC(=O)CCC(=O)N2CCOCC2)c1`, the AC50 [1] is reported as 29.1 µM [falling, single point].

With `CCOC(=O)c1cc2ccc3ccccc3c2s1` the cell number change was -30.7% and the AC50 [2] was 14.6 µM [falling, single point].

With `CCOC(=O)Nc1ccc2c(c1)ncn2C1CCCCC1` the cell number change was 10.7% and the AC50 [1] was 29.1 µM [rising, single point].

For `OCc1ccc(O)c2ncccc12`, the cell number change was -48.8%, the AC50 [2] was 23.1 µM [falling, partial curve, poor fit] and the AC50 [1] was 23.1 µM [falling, partial curve].

With `CC(=O)Nc1ccc(S(=O)(=O)Nc2ccn(Cc3ccccc3Cl)n2)cc1` the cell number change was -19.6% and the AC50 [1] was 0.58 µM [rising, single point].

For `O=C(NC(=S)Nc1cccc([N+](=O)[O-])c1)C1CCCC1`, the cell number change was -5.45% and the AC50 [1] was 29.1 µM [rising, single point].

With `COc1ccc2c(c1)[nH]c1c(N3CCSCC3)ncnc12` the cell number change was -35.2%, the AC50 [2] was 29.1 µM [falling, single point] and the AC50 [1] was 16.4 µM [falling, single point].

With `COc1ccc(C)cc1Nc1nc(C)nc2sc(C)cc12` the cell number change was 6.11% and the AC50 [1] was 0.82 µM [rising, full curve, poor fit].

`CCCN(CCC)C(=O)C1CCCN1S(=O)(=O)c1cccc2nsnc12` (stereo not drawn) gave a cell number change of -10.9%.

Work on `CC1(C)CC(=O)C(C=NCCC2=CCCCC2)=C(O)C1` yielded a cell number change of 6.18%.

In the case of `COc1ccc(-n2nc([N+](=O)[O-])c(=NCCCN3CCCC3=O)n2O)cc1`, the cell number change is reported as 19.8% and the AC50 [1] is reported as 13 µM [rising, single point].

For `COc1ccc(-n2cc(-c3ccc(OC)c(OC)c3)[nH]c2=S)cc1`, the cell number change was 3.88% and the AC50 [1] was 0.0731 µM [rising, full curve].

For `CC1=CC(C)(C)N(C(=O)CSc2ncn[nH]2)c2ccccc21`, the AC50 [2] was 1.46 µM [rising, partial curve] and the AC50 [1] was 1.64 µM [rising, partial curve, poor fit].

With `COc1ccc2oc(C(=O)OCC(=O)N3CCCCC3)c(C)c2c1` the cell number change was 71.7% and the AC50 [2] was 14.6 µM [rising, partial curve].

For `COc1ccc(-n2cccc2C=O)cc1`, the cell number change was 6.95% and the AC50 [1] was 0.092 µM [rising, full curve, poor fit].

With `CCOc1ccc(CCNS(=O)(=O)c2cccc3nsnc23)cc1OCC` the cell number change was 7.81% and the AC50 [1] was 13 µM [rising, partial curve].

With `O=C(CNC(=O)[C@@H]1Cc2ccccc2CN1)Nc1ccc2c(c1)OCO2` the cell number change was 50.2%, the AC50 [2] was 29.1 µM [rising, single point] and the AC50 [1] was 29.1 µM [rising, single point].

For `Cc1nn(Cc2ccccc2Cl)c(Cl)c1/C=C/C(=O)OCC(=O)NC(N)=O`, the cell number change was 16.9% and the AC50 [1] was 1.03 µM [rising, full curve, poor fit].

For `COCCCN1C(=O)c2ccc(C(=O)N3CCN(c4ccc(OC)cc4)CC3)cc2C1=O`, the cell number change was -11% and the AC50 [1] was 29.1 µM [falling, single point].

For `CN(C1=C(N2CCOCC2)C(=O)c2ccccc2C1=O)c1ccccc1`, the cell number change was -48.4%, the AC50 [2] was 25.9 µM [falling, partial curve] and the AC50 [1] was 18.4 µM [falling, partial curve].

Work on `CCOC(=O)c1ccccc1NC(=O)CSc1nnc(C)c(=O)[nH]1` yielded a cell number change of 2.63%.

For `Cc1ccc2[nH]c(=O)c3cc(C(=O)N(C)Cc4ccco4)sc3c2c1`, the cell number change was -33.3% and the AC50 [2] was 29.1 µM [falling, single point].

With `CC(C)=CCC/C(C)=C/COc1ccc2ccc(=O)oc2c1` the cell number change was -24.4% and the AC50 [1] was 32.6 µM [falling, single point].

In the case of `O=C(Cc1ccc(F)cc1)Nc1ccc(S(=O)(=O)N2CCCCC2)cc1`, the cell number change is reported as -45.2%, the AC50 [2] is reported as 23.1 µM [falling, single point] and the AC50 [1] is reported as 29.1 µM [falling, single point].

With `CC1CCCN(S(=O)(=O)c2ccc(S(=O)(=O)N3CCCC3)cc2)C1` (stereo not drawn) the cell number change was 15.4% and the AC50 [1] was 29.1 µM [rising, single point].

With `Cc1[nH][nH]c(=O)c1C(c1c(C)[nH][nH]c1=O)c1cn(Cc2cccc3ccccc23)c2ccccc12` the cell number change was -64.6%, the AC50 [2] was 13 µM [falling, partial curve] and the AC50 [1] was 23.1 µM [falling, partial curve, poor fit].

For `O=C(NNc1cc(Cl)cc(Cl)c1)c1c(F)cccc1Cl`, the cell number change was 10.6% and the AC50 [2] was 0.58 µM [rising, single point].

For `CC(=O)c1c(C)[nH]c(C(=O)OCC(=O)Nc2ccc(C)cc2[N+](=O)[O-])c1C`, the cell number change was -51.2%, the AC50 [2] was 14.6 µM [falling, partial curve, poor fit] and the AC50 [1] was 16.4 µM [falling, single point].

With `CC(=O)c1ccc(NC(=O)C(C)OC(=O)c2ccc(NS(=O)(=O)c3ccc(F)c(F)c3)cc2)cc1` (stereo not drawn) the cell number change was 2.01% and the AC50 [1] was 0.58 µM [falling, single point].

With `O=C(NCc1cccc(Br)c1)C1CC(c2ccccc2C(F)(F)F)=NO1` (stereo not drawn) the cell number change was 6.36% and the AC50 [1] was 1.64 µM [rising, full curve].

For `CC1(C)CC(=O)c2sc(NS(=O)(=O)c3cc(Cl)ccc3Cl)nc2C1`, the cell number change was -8.57% and the AC50 [1] was 6.51 µM [falling, single point].

With `O=S(=O)(Nc1ccc(F)cc1Cl)c1ccc(-c2cnc(C3CC3)o2)cc1` the cell number change was -2.36%.

For `COc1ccc(C2NC(=O)c3ccccc3O2)c(OC)c1OC` (stereo not drawn), the cell number change was -20.5%, the AC50 [2] was 2.06 µM [falling, full curve, poor fit] and the AC50 [1] was 1.84 µM [falling, full curve, poor fit].

For `O=C(Cc1csc(-c2ccccc2)n1)NCc1ccccc1F`, the cell number change was 3.13%.

In the case of `O=C(O)COc1ccccc1/C=N/NC(=O)CN1CCN(S(=O)(=O)c2ccc(Br)cc2)CC1`, the AC50 [1] is reported as 23.1 µM [rising, single point].

In the case of `Cc1ccc(S(=O)(=O)NN2C(=O)/C(=C/c3cccc(F)c3)SC2=S)cc1`, the cell number change is reported as -18% and the AC50 [1] is reported as 0.164 µM [falling, full curve].

In the case of `O=c1[nH]c(CSc2nc3ccccc3o2)nc2c1cnn2-c1ccccc1`, the AC50 [2] is reported as 0.092 µM [falling, full curve, poor fit] and the AC50 [1] is reported as 0.184 µM [falling, full curve].

With `Cn1c(SCC(N)=O)nnc1C1CCN(C(=O)NCc2ccccc2)CC1` the cell number change was 13.3% and the AC50 [1] was 0.366 µM [falling, single point].

For `CC(C)COC(=O)Cc1c(O)c2ccccc2[nH]c1=O`, the cell number change was 35.1%, the AC50 [2] was 36.6 µM [rising, partial curve, poor fit] and the AC50 [1] was 0.731 µM [rising, partial curve, poor fit].

For `CNS(=O)(=O)c1ccc2nc(NC(=O)/C=C/c3ccco3)sc2c1`, the cell number change was -31%, the AC50 [2] was 16.4 µM [falling, single point] and the AC50 [1] was 16.4 µM [falling, single point].

For `CN(C)c1cnn(-c2ccccc2)c(=O)c1Cl`, the cell number change was -27.8% and the AC50 [1] was 0.0164 µM [falling, full curve].
